Results are given in words; binding and its absence hold for the method and conditions named. Some binding calls cover weakened binding; strength is not graded here.
How the values were obtained:
[1] = biological target: wild-type human CLDN-5 protein (human) (UniProt O00501); test: FACS on CLDN-5-expressing cells, antibody 5 µg/mL
[2] = biological target: crab-eating macaque CLDN-5 protein (crab-eating macaque); test: FACS on CLDN-5-expressing cells, antibody 5 µg/mL
[3] = biological target: wild-type human CLDN-5 protein (human) (UniProt O00501); test: FACS, hybridoma supernatant on CLDN-expressing cells
[4] = biological target: mouse CLDN-5 protein (mouse) (UniProt O54942); test: as above

Chains of the proteins cited; added tags and fusions are not shown. Lines headed by an entry give the natural chain unless they say otherwise; changes in a name come on top.
UniProt O00501: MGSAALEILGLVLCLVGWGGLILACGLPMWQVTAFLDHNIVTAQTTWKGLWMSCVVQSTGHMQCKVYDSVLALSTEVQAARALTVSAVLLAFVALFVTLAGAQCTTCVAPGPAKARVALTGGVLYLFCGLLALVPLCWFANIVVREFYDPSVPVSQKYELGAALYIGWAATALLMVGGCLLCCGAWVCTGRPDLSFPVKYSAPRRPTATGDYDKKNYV
UniProt O54942: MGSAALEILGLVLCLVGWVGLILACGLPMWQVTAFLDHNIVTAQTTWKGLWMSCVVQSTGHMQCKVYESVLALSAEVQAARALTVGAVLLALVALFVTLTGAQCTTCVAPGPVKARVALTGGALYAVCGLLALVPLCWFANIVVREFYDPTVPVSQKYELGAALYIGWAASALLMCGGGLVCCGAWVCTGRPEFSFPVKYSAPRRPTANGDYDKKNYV

Measured: binding

B1: mouse anti-CLDN-5 antibody M48 (antibody, mouse IgG3, V domains shown)
VH: QAYLQQSGAELVRPGASVKMSCKASGYTFTSYNMHWVKKTRRQGLEWIGAISPGNGNTSYNQKFKGKATLTVDKSSSTAYMQLSSLTSEDSAVYFCARDDGYYGALDYWGQGTSVTVSS
VL: DIVLTQSPATLSVTPGESVSLSCRASQGISTSIHWYQQKSNESPRLLIRYASQSISRIPSRFSGSGSGTDFTLTINGVESEDLSVYYCQQSYNLPLTFGSGTKLEI
binds: all assays above

B2: rat anti-CLDN-5 antibody R2 (antibody, rat IgG2a, V domains shown)
VH: QVQLKESGPGLVQPSQTLSLTCTVSGLSLIRNSVSWIRQPPGKGLEWMGVIWSNGGTEYNSTVKSRLSISRDTSKNQVFLKMNSLQTEDSAMFFCARTPDGYYPYFDYWGQGVMVTVSS
VL: B1 VL
binds: [1] | [2] | [3]

From patent publication US20200148765A1
